Experimental data: PubChem BioAssay AID1259424 (University of Nebraska Medical Center, 2018)
Shown is a random part of about 14,000 reagents. 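Higher correlation or smaller distance means closer resemblance to KSR1 loss; control wells, including KSR1 knockdowns, recur on many plates.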 Not stated in the record: the time to read-out.

- Screen: 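Rank knockdowns across the genome by resemblance to the KSR1 depletion profile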 (primary screen)
- Cells: human HCT116 colon cancer cells
- Reagents: siRNA pool against human genes, 50 nM
- Measured: 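Log2 levels of six mRNAs (branched-DNA multiplex), adjusted by two reference genes and the non-targeting median, then scored against the average KSR1 knockdown pattern as Pearson r and euclidean distance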
- Reading the numbers: mean correlation with KSR1 profile and KSR1 correlation: higher = expression change more like KSR1 knockdown; mean distance from KSR1 profile: higher = expression change less like KSR1 knockdown

The opening 4 entries, to show the layout:
gene symbol	mean correlation with KSR1 profile	mean distance from KSR1 profile	KSR1 correlation, replicate 1	KSR1 correlation, replicate 2	KSR1 correlation, replicate 3
ADIPOR1 (adiponectin receptor 1)	0.874	0.739	0.875	0.763	0.711
MYG1 (MYG1 exonuclease)	-0.4	3.01	-0.229	0.0257	-0.595
KLK15 (kallikrein related peptidase 15)	-0.363	3.53	-0.21	-0.494	-0.337
ANXA9 (annexin A9)	0.316	2.07	0.31	0.292	0.436

The listing, from the start:
gene symbol	mean correlation with KSR1 profile	mean distance from KSR1 profile	KSR1 correlation, replicate 1	KSR1 correlation, replicate 2	KSR1 correlation, replicate 3
ADIPOR1 (adiponectin receptor 1)	0.874	0.739	0.875	0.763	0.711
MYG1 (MYG1 exonuclease)	-0.4	3.01	-0.229	0.0257	-0.595
KLK15 (kallikrein related peptidase 15)	-0.363	3.53	-0.21	-0.494	-0.337
ANXA9 (annexin A9)	0.316	2.07	0.31	0.292	0.436
TMEM165 (transmembrane protein 165)	-0.562	3.81	-0.406	-0.421	-0.764
MXI1 (MAX interactor 1, dimerization protein)	0.246	1.69	0.461	0.178	0.235
THOC6 (THO complex subunit 6)	0.0155	2.92	0.0867	-0.137	0.136
PTGER3 (prostaglandin E receptor 3)	-0.577	4.04	0.128	-0.469	-0.374
ARHGAP32 (Rho GTPase activating protein 32)	-0.372	4	-0.0736	-0.375	-0.217
CDKN3 (cyclin dependent kinase inhibitor 3)	0.796	1.62	0.676	0.653	0.862
LYPLA1 (lysophospholipase 1)	-0.379	2.74	-0.00418	-0.71	-0.479
PLPPR4 (phospholipid phosphatase related 4)	0.0907	1.99	-0.0251	0.198	0.199
STAU1 (staufen double-stranded RNA binding protein 1)	0.0878	1.64	-0.177	0.156	0.126
AGBL5 (AGBL carboxypeptidase 5)	0.704	1.75	0.611	0.826	0.658
NEIL1 (nei like DNA glycosylase 1)	0.156	2.96	0.162	0.0927	0.169
LRP3 (LDL receptor related protein 3)	-0.254	2.12	-0.376	-0.23	-0.297
PRKD2 (protein kinase D2)	0.377	1.79	0.485	0.793	-0.16
PRSS8 (serine protease 8)	-0.0577	2.12	0.057	0.185	-0.299
MAP3K20 (mitogen-activated protein kinase kinase kinase 20)	-0.205	1.61	0.0195	-0.0476	-0.652
FOXP3 (forkhead box P3)	0.699	1.45	0.711	0.914	0.664
ERI3 (ERI1 exoribonuclease family member 3)	-0.737	1.62	-0.825	-0.899	-0.635
OCIAD1 (OCIA domain containing 1)	-0.347	3.36	-0.0733	-0.575	-0.179
EFHD1 (EF-hand domain family member D1)	0.643	1.51	0.193	0.675	0.54
ZBTB48 (zinc finger and BTB domain containing 48)	-0.353	2.31	-0.478	-0.449	-0.131
RYBP (RING1 and YY1 binding protein)	-0.738	2.03	-0.78	-0.857	-0.436
RCN2 (reticulocalbin 2)	-0.0516	1.93	0.0631	-0.338	0.153
MAP3K7 (mitogen-activated protein kinase kinase kinase 7)	0.315	1.44	0.743	0.094	0.314
ERCC4 (ERCC excision repair 4, endonuclease catalytic subunit)	-0.476	3.98	-0.426	-0.533	-0.485
LAMP1 (lysosome associated membrane protein 1)	-0.725	2.92	-0.814	-0.756	-0.593
RIMBP3 (RIMS binding protein 3)	0.561	2.1	0.562	0.446	0.0633
PDK4 (pyruvate dehydrogenase kinase 4)	-0.147	1.95	0.607	-0.284	-0.212
CRHR2 (corticotropin releasing hormone receptor 2)	0.119	3.85	0.0734	0.24	0.0615
SBF1 (SET binding factor 1)	-0.254	1.57	-0.155	-0.461	-0.104
MICU1 (mitochondrial calcium uptake 1)	-0.504	3.55	-0.356	-0.629	-0.434
ARSF (arylsulfatase F)	-0.179	1.46	0.0911	-0.287	-0.466
AGTRAP (angiotensin II receptor associated protein)	0.602	1.68	0.483	0.352	0.845
SEM1 (SEM1 26S proteasome subunit)	-0.741	3.06	-0.689	-0.757	-0.788
LCT (lactase)	-0.0426	2	-0.366	0.221	-0.0638
MAZ (MYC associated zinc finger protein)	0.216	2	0.323	0.0962	-0.0457
TOM1L1 (target of myb1 like 1 membrane trafficking protein)	0.59	0.712	0.558	0.583	0.412
PEX5L (peroxisomal biogenesis factor 5 like)	-0.361	3.29	-0.404	-0.366	-0.18
TAF12 (TATA-box binding protein associated factor 12)	-0.564	2.37	-0.437	-0.668	-0.394
EPB41L1 (erythrocyte membrane protein band 4.1 like 1)	0.17	1.91	0.312	0.185	0.148
OGDHL (oxoglutarate dehydrogenase L)	-0.757	2.79	-0.843	-0.845	-0.682
TTLL2 (tubulin tyrosine ligase like 2)	0.844	1.25	0.812	0.921	0.787
OSTC (oligosaccharyltransferase complex non-catalytic subunit)	-0.096	2.55	-0.112	0.046	-0.000769
LAMB2 (laminin subunit beta 2)	0.538	1.19	0.512	0.584	0.581
SERPINH1 (serpin family H member 1)	-0.344	2.43	-0.296	-0.15	-0.383
RCN3 (reticulocalbin 3)	0.0177	3.22	-0.0954	0.128	0.12
EVA1A (eva-1 homolog A, regulator of programmed cell death)	0.885	2.24	0.767	0.934	0.96
NFS1 (NFS1 cysteine desulfurase)	0.591	1.49	0.585	0.624	0.268
TRERF1 (transcriptional regulating factor 1)	0.0396	5.77	-0.0869	-0.092	0.399
SRP9 (signal recognition particle 9)	-0.204	1.15	-0.0384	-0.487	0.0232
CPN2 (carboxypeptidase N subunit 2)	0.408	1.9	0.469	0.345	0.309
RGS3 (regulator of G protein signaling 3)	0.342	3.11	0.315	0.517	0.448
FOXF1 (forkhead box F1)	0.325	2.7	0.249	0.247	0.466
KRABD1 (KRAB domain containing 1)	0.135	1.99	-0.0361	0.0278	0.164
CHDH (choline dehydrogenase)	-0.111	1.84	-0.0489	-0.436	-0.106
PRDM5 (PR/SET domain 5)	0.355	1.28	0.176	0.458	0.187
IL18RAP (interleukin 18 receptor accessory protein)	-0.366	2.04	-0.382	-0.325	-0.541
TMEM94 (transmembrane protein 94)	-0.136	3.02	0.0918	-0.291	-0.019
ALDH2 (aldehyde dehydrogenase 2 family member)	-0.0195	2.44	0.114	0.22	-0.216
RELB (RELB proto-oncogene, NF-kB subunit)	-0.309	2.37	0.00762	0.00809	-0.319
